# Source: the supplement of paper PMC6411743
# Amino acid sequences for entries named in this document (tags omitted). A change or cut given only in a name is not applied to a line headed by its entry.
# UniProt P36776: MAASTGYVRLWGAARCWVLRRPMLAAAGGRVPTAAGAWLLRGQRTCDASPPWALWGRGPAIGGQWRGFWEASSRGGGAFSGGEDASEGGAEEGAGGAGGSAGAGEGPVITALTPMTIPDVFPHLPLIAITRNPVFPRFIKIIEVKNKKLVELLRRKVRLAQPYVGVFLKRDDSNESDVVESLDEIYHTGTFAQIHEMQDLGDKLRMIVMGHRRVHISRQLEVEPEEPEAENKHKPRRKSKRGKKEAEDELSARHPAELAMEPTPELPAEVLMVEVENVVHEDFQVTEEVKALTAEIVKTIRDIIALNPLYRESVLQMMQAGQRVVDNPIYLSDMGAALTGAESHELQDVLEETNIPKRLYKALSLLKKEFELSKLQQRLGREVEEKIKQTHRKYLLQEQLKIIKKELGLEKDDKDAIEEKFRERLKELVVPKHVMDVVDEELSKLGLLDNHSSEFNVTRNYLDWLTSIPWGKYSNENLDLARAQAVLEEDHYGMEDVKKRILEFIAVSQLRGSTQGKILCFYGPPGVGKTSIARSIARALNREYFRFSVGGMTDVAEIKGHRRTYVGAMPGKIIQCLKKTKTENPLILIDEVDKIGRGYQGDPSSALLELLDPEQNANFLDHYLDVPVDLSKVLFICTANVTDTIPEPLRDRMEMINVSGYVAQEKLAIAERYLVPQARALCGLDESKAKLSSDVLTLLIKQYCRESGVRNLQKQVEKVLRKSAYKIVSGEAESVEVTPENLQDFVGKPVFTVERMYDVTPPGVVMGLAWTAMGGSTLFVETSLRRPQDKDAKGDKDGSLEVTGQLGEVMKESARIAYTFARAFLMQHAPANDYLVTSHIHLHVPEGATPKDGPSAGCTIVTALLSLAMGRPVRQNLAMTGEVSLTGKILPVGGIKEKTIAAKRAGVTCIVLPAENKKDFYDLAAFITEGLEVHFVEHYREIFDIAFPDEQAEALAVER
# UniProt Q96CD2: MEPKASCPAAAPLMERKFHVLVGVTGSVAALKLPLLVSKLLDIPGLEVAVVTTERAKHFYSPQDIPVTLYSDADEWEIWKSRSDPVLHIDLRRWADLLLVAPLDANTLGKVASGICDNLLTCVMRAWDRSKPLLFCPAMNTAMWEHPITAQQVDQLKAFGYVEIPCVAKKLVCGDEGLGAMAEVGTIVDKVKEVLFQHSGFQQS
# UniProt P35236: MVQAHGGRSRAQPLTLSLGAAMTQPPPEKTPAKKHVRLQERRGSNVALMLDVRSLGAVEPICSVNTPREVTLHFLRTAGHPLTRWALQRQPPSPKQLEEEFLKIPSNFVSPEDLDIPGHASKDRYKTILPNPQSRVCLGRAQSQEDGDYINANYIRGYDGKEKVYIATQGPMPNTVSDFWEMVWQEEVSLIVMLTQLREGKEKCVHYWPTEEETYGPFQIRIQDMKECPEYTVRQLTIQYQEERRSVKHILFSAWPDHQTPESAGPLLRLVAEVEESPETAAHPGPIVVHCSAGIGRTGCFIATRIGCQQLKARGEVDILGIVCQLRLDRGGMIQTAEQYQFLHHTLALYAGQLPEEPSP
# UniProt P01130: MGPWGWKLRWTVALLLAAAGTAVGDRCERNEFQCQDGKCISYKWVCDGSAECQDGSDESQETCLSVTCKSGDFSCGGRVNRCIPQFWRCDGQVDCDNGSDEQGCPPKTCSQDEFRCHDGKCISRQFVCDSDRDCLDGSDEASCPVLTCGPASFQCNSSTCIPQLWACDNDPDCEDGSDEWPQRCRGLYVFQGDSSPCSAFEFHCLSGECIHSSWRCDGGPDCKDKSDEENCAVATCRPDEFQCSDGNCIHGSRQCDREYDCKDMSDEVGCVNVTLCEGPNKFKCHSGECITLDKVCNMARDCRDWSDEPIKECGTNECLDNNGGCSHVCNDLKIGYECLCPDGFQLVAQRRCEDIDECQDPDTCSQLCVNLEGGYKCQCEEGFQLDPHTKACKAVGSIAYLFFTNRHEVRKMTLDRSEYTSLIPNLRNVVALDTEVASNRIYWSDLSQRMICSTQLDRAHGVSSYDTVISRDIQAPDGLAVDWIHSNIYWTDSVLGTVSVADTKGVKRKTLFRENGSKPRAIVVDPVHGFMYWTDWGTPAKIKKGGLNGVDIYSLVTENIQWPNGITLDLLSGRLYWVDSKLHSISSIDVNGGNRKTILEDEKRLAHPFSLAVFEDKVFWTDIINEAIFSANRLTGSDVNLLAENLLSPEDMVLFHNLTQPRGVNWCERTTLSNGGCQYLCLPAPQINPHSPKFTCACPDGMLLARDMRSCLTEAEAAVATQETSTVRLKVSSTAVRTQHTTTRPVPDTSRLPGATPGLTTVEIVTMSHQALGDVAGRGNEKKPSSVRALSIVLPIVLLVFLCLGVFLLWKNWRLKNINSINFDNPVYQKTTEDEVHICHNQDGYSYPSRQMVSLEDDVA
# UniProt Q9H0A8, whole entry: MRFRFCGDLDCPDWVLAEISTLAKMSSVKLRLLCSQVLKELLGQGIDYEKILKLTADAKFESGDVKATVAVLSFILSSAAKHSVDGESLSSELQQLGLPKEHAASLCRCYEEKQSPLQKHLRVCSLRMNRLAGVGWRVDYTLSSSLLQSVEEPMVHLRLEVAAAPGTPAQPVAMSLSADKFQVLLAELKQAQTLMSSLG
# UniProt P35637: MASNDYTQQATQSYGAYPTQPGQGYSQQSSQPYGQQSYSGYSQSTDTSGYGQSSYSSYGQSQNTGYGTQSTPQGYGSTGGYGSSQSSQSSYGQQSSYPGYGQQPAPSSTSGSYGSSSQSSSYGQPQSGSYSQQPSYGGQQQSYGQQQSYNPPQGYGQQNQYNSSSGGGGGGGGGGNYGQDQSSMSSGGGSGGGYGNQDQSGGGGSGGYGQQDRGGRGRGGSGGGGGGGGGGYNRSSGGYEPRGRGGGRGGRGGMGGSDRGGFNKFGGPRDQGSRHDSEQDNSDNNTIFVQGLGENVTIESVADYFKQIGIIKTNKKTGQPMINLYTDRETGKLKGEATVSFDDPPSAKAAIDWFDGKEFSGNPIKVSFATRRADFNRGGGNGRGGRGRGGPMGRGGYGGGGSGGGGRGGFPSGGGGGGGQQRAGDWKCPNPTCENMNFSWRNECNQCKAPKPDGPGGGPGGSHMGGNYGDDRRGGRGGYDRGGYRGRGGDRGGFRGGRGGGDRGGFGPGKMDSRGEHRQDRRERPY
# UniProt Q9Y606: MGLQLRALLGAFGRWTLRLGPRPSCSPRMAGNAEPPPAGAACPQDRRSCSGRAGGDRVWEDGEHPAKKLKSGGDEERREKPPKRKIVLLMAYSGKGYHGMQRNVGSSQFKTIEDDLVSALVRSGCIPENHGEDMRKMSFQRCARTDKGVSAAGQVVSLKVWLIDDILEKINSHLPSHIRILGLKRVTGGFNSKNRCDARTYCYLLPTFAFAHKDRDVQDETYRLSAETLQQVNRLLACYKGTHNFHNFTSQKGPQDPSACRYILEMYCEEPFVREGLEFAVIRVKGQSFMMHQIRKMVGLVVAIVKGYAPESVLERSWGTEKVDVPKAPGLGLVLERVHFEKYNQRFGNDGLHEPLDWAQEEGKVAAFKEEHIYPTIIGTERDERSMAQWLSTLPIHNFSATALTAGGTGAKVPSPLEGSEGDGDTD
# UniProt Q96S82: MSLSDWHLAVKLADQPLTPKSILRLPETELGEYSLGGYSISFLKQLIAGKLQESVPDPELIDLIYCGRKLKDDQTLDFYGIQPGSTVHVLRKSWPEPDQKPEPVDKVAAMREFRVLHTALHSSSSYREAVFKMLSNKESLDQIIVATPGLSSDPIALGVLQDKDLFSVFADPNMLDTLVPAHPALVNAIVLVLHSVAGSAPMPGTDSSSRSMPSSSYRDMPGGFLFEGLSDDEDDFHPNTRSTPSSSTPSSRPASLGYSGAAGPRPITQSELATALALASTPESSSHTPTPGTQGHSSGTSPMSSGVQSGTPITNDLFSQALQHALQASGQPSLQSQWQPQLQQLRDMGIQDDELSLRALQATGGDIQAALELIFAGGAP
# UniProt P47736: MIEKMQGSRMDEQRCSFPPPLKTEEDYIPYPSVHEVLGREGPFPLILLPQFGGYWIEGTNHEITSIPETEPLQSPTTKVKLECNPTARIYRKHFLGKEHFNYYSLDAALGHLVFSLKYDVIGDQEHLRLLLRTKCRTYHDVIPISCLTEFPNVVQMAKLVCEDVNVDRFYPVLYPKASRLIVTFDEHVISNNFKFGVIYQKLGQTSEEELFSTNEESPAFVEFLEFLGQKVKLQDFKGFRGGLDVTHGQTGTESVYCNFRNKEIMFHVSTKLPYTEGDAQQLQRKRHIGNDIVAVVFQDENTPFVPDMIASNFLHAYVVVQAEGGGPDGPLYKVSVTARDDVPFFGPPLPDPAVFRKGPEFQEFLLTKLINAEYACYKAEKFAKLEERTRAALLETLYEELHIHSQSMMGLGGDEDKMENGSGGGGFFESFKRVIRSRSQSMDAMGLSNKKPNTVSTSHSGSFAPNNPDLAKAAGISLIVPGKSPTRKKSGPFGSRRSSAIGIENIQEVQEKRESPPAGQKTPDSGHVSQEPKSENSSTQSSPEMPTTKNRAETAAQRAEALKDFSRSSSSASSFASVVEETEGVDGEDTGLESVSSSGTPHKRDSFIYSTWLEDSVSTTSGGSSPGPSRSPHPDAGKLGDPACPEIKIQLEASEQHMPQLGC
# UniProt Q9Y2K7: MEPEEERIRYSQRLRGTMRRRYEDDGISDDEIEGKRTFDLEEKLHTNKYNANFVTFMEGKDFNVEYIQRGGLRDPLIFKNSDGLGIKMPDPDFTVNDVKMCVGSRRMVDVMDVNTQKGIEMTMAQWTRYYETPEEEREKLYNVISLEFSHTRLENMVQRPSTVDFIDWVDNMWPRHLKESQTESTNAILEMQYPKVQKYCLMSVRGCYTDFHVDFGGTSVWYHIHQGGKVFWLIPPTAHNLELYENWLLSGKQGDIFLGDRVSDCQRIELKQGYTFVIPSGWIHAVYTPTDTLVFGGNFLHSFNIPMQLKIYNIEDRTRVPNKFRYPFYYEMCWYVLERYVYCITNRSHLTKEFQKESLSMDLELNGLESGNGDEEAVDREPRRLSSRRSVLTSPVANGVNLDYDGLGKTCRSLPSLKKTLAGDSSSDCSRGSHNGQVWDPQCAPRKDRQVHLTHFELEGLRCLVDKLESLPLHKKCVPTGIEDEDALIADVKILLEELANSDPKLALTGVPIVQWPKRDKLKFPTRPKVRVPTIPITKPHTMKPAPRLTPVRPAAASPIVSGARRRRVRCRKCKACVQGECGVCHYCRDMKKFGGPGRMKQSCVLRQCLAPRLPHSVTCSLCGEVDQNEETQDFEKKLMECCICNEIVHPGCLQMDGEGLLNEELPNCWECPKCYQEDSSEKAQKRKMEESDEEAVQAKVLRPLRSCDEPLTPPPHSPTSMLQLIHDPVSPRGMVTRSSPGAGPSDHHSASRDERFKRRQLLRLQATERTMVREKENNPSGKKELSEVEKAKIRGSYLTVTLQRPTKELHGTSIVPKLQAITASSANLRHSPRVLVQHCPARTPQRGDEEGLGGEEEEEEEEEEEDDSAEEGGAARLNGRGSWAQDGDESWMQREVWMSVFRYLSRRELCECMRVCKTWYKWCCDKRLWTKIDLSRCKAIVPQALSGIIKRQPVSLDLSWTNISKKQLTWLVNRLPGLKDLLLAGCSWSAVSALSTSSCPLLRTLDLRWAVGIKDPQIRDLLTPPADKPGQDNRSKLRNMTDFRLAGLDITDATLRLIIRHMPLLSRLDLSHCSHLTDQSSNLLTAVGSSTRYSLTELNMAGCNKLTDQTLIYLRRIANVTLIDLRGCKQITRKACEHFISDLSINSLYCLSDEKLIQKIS
# UniProt Q96SW2: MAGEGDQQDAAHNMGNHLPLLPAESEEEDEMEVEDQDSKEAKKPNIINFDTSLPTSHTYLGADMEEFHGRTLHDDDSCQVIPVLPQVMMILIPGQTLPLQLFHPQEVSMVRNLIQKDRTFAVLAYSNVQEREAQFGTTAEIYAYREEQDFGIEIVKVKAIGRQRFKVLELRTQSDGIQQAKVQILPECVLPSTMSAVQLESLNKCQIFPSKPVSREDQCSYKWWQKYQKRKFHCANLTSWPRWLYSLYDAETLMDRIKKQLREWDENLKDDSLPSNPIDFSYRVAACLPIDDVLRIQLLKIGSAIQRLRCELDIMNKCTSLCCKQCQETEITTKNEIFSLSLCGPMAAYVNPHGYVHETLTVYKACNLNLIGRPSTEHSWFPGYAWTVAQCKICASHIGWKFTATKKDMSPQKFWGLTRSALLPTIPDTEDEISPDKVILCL
# UniProt Q15287: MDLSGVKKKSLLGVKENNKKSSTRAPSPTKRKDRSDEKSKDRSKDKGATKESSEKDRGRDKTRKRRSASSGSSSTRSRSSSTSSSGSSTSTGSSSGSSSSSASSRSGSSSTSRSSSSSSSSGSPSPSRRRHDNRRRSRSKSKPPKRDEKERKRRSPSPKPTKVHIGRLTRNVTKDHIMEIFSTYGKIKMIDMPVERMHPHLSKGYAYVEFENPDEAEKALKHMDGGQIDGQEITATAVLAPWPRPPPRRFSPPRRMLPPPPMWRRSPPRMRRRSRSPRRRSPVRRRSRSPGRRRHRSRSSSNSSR
# ± gives the standard deviation of the averaged measurements. This is one part of the list.
# Compound: Nc1nc2c(ncn2[C@@H]2O[C@H](COP(=O)(O)OP(=O)(O)OP(=O)(O)O)[C@@H](O)[C@H]2O)c(=O)[nH]1 [guanosine triphosphate]
# Assay: NP40-soluble protein abundance relative to vehicle (solubility fold change) (ratio); higher = more soluble protein in presence of GTP
# Method in brief: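 In three independent experiments, Jurkat crude lysate made by Dounce homogenisation was treated for 10 min at room temperature and then 3 min at 37 °C with eight concentrations ranging from 0.1 to 10 mM. It was then solubilised with 0.8% NP40 plus benzonase for 60 min at 4 °C and ultracentrifuged. The supernatant was TMT-labelled for LC-MS/MS, and each value is the fold change against the detergent-processed vehicle for the same replicate, using vsn-normalised intensities.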
Target,NP40-soluble protein abundance (concentration: 0.1mM),NP40-soluble protein abundance (concentration: 0.5mM),NP40-soluble protein abundance (concentration: 1mM),NP40-soluble protein abundance (concentration: 2mM),NP40-soluble protein abundance (concentration: 4mM),NP40-soluble protein abundance (concentration: 6mM),NP40-soluble protein abundance (concentration: 8mM),NP40-soluble protein abundance (concentration: 10mM)
K7EKE6 and related entries (UniProt P36776),1.04 ± 0.029,1.03 ± 0.046,0.963 ± 0.045,0.945 ± 0.059,0.953 ± 0.048,0.928 ± 0.054,0.916 ± 0.031,0.871 ± 0.058
H3BRQ0 and related entries (UniProt Q96CD2),0.9802 ± 0.0077,0.959 ± 0.041,0.975 ± 0.037,0.89 ± 0.034,0.933 ± 0.056,0.878 ± 0.037,0.882 ± 0.13,0.867 ± 0.023
J3KR55 and related entries (UniProt P35236),1 ± 0.052,1.05 ± 0.03,0.974 ± 0.044,1 ± 0.041,0.949 ± 0.056,0.955 ± 0.036,0.951 ± 0.053,0.979 ± 0.084
H3BU04 and related entries (UniProt Q9BVW5),0.848 ± 0.15,0.761 ± 0.13,0.964 ± 0.068,0.987 ± 0.041,0.941 ± 0.1,0.981 ± 0.11,0.834 ± 0.16,1.01 ± 0.081
J3KMZ9 and related entries (UniProt P01130),1.07 ± 0.11,1.1 ± 0.14,1.16 ± 0.12,1.11 ± 0.071,1.09 ± 0.086,1.11 ± 0.12,1.17 ± 0.18,1.16 ± 0.15
H3BM91 and related entries (UniProt Q9H0A8),1.06 ± 0.067,1.02 ± 0.1,0.969 ± 0.097,1 ± 0.15,1.01 ± 0.11,0.925 ± 0.1,0.923 ± 0.05,0.9065 ± 0.007
H3BPE7 and related entries (UniProt P35637),0.939 ± 0.046,0.966 ± 0.11,1.1 ± 0.077,1.13 ± 0.12,1.22 ± 0.12,1.24 ± 0.13,1.3 ± 0.12,1.4 ± 0.13
H3BME1 and related entries (UniProt Q6PCT2),1.03 ± 0.16,1.07 ± 0.031,1.08 ± 0.13,1.08 ± 0.085,0.986 ± 0.09,1.01 ± 0.14,0.971 ± 0.21,0.993 ± 0.14
K7EKL3 and related entries (UniProt P28799),1.05 ± 0.1,1.04 ± 0.09,1.05 ± 0.1,1.03 ± 0.059,1.01 ± 0.11,1.02 ± 0.1,1.1 ± 0.061,1.05 ± 0.083
H0Y5K5 and related entries (UniProt Q9Y282),1.04 ± 0.011,1.024 ± 0.0098,1.049 ± 0.01,0.963 ± 0.012,0.979 ± 0.039,0.981 ± 0.013,0.993 ± 0.029,0.903 ± 0.021
G8JLB3 and related entries (UniProt Q9Y606),0.978 ± 0.041,0.945 ± 0.033,0.925 ± 0.016,0.909 ± 0.026,0.936 ± 0.01,0.881 ± 0.015,0.881 ± 0.053,0.886 ± 0.06
H3BRI5 and related entries (UniProt O95149),1.14 ± 0.062,1.03 ± 0.061,0.971 ± 0.09,1.01 ± 0.092,0.967 ± 0.13,0.962 ± 0.099,0.8957 ± 0.0036,0.877 ± 0.073
I3L1K6 and related entries (UniProt P12829),1.03 ± 0.088,0.956 ± 0.1,1.11 ± 0.12,1.15 ± 0.058,1.14 ± 0.11,1.11 ± 0.11,1.02 ± 0.13,1.14 ± 0.046
H3BUV9 and related entries (UniProt Q96S82),0.867 ± 0.049,0.711 ± 0.08,0.916 ± 0.048,0.942 ± 0.12,0.942 ± 0.11,0.813 ± 0.1,0.833 ± 0.21,0.985 ± 0.036
H0Y6E6 and related entries (UniProt Q92622),0.979 ± 0.055,1.16 ± 0.18,1.02 ± 0.21,1.03 ± 0.13,1.02 ± 0.14,1.04 ± 0.11,0.935 ± 0.16,1.09 ± 0.14
I3L2J0 (UniProt Q96RK0),0.965 ± 0.013,0.997 ± 0.073,1.02 ± 0.12,0.954 ± 0.11,0.927 ± 0.069,0.963 ± 0.087,0.976 ± 0.053,0.982 ± 0.048
J3KPC5 and related entries (UniProt P47736),1.01 ± 0.065,1.03 ± 0.069,0.991 ± 0.1,0.949 ± 0.093,0.941 ± 0.05,0.961 ± 0.11,0.968 ± 0.085,0.923 ± 0.053
H0Y6H0 and related entries (UniProt Q8NB78),1.04 ± 0.05,1.11 ± 0.052,1.03 ± 0.039,0.941 ± 0.091,1.01 ± 0.067,1.08 ± 0.076,1.05 ± 0.095,1.01 ± 0.23
J3QLS3 and related entries (UniProt Q9Y2R9),1.07 ± 0.12,1.09 ± 0.14,1.27 ± 0.25,1.41 ± 0.23,1.48 ± 0.33,1.41 ± 0.29,1.32 ± 0.27,1.46 ± 0.36
G5E9W9 and related entries (UniProt Q9NUV9),0.991 ± 0.056,1 ± 0.044,0.975 ± 0.092,0.938 ± 0.082,0.932 ± 0.099,0.932 ± 0.1,0.903 ± 0.064,0.896 ± 0.073
H7C1N3 and related entries (UniProt O15155),0.982 ± 0.089,0.946 ± 0.081,1.04 ± 0.15,0.967 ± 0.063,0.971 ± 0.044,0.921 ± 0.036,0.874 ± 0.048,0.94 ± 0.051
H0YC67 and related entries (UniProt Q96DB5),0.926 ± 0.025,0.873 ± 0.023,0.924 ± 0.011,0.926 ± 0.01,0.899 ± 0.036,0.901 ± 0.031,0.819 ± 0.08,0.872 ± 0.06
J3KR97 and related entries (UniProt Q9BTW9),1.07 ± 0.081,1.05 ± 0.092,0.945 ± 0.069,0.978 ± 0.14,0.964 ± 0.1,0.928 ± 0.081,0.888 ± 0.043,0.88 ± 0.068
I3VM54 and related entries (UniProt Q9Y2K7),1.13 ± 0.029,1.09 ± 0.015,1.11 ± 0.011,1.21 ± 0.036,1.29 ± 0.053,1.35 ± 0.047,1.43 ± 0.043,1.503 ± 0.013
J3QT87 and related entries (UniProt Q96SW2),1.07 ± 0.084,1.07 ± 0.1,0.979 ± 0.034,1.03 ± 0.12,1.05 ± 0.061,1.04 ± 0.1,0.946 ± 0.047,0.931 ± 0.039
H3BMM9 and related entries (UniProt Q15287),0.958 ± 0.09,1.19 ± 0.048,1.29 ± 0.14,1.32 ± 0.27,1.2 ± 0.42,1.12 ± 0.34,0.972 ± 0.3,1.09 ± 0.43

# Full records as entered above:
# J3QLS3 and related entries (UniProt Q9Y2R9) reads NP40-soluble protein abundance (concentration: 0.1mM): 1.07 ± 0.12; NP40-soluble protein abundance (concentration: 0.5mM): 1.09 ± 0.14; NP40-soluble protein abundance (concentration: 1mM): 1.27 ± 0.25; NP40-soluble protein abundance (concentration: 2mM): 1.41 ± 0.23; NP40-soluble protein abundance (concentration: 4mM): 1.48 ± 0.33; NP40-soluble protein abundance (concentration: 6mM): 1.41 ± 0.29; NP40-soluble protein abundance (concentration: 8mM): 1.32 ± 0.27; NP40-soluble protein abundance (concentration: 10mM): 1.46 ± 0.36
# J3KMZ9 and related entries (UniProt P01130) reads NP40-soluble protein abundance (concentration: 0.1mM): 1.07 ± 0.11; NP40-soluble protein abundance (concentration: 0.5mM): 1.1 ± 0.14; NP40-soluble protein abundance (concentration: 1mM): 1.16 ± 0.12; NP40-soluble protein abundance (concentration: 2mM): 1.11 ± 0.071; NP40-soluble protein abundance (concentration: 4mM): 1.09 ± 0.086; NP40-soluble protein abundance (concentration: 6mM): 1.11 ± 0.12; NP40-soluble protein abundance (concentration: 8mM): 1.17 ± 0.18; NP40-soluble protein abundance (concentration: 10mM): 1.16 ± 0.15
